Counter-ions that a name gives are not always drawn. At least one compound was matched to its structure with a doubt left.
Tests used:
[1] = tested on: human plasma samples (activated cephalin time); assay: Anti-coagulant activity, activated cephalin time (ACT) in human plasma; type: biochemical; settings: concentration that doubles the activated cephalin time, 37° C.
Description: (§1) In order to evaluate the anti-coagulant activity of the compounds of the invention, the thrombin time (TT) and the activated cephalin time (ACT) were determined in human plasma samples. An ST4 coagulometer was used. A plasma deficient in platelets is lyophilised and taken up in distilled water. The TT is obtained using the reagent Thrombine Prest and the ACT is obtained using the reagent Céphaline PTT Automate. Inhibitor or solvent (10 μl) is added to the plasma (90 μl), which is then incubated for 2 minutes at 37° C. 100 μl of Thrombine Prest (TT) or of Céphaline PTT Automate (ACT) are added and at the same time the timer is started.
(§2) Under those conditions, the TT is of the order of 18 seconds and the ACT of the order of 12 seconds. The activity of an antagonist is evaluated by its capacity to prolong the TT and the ACT relative to the control. The effect of the inhibitors is expressed by the concentration in μM that doubles the coagulation time (Ctt2).

[2] = tested on: human plasma samples (thrombin time); assay: Anti-coagulant activity, thrombin time (TT) in human plasma; type: biochemical; settings: concentration that doubles the thrombin time, 37° C.
Description: as §1, §2

N=C(N)NOCCNC(=O)[C@@H]1CCc2cnc(NCC(c3ccccc3)c3ccccc3)c(=O)n21 [Example 3, (6S)-N-[2-({[amino(imino)methyl]amino}oxy)ethyl]-3-[(2,2-diphenyl-ethyl)amino]-4-oxo4,6,7,8-tetrahydropyrrolo[1,2-a]pyrazine-6-carboxamide dihydrochloride] was tested, and the “ACT Ctt2” value [1] was 1.1 µM and the “TT Ctt2” value [2] was 0.10 µM.

— US6686358B2, “Bicyclic amino-pyrazinone compounds” (Les Laboratoires Servier, priority 2000, dated 2004)
